Results deposited as PubChem BioAssay AID652272 (Drosophila RNAi Screening Center, 2013)
In all, the deposit lists about 21,000 reagents; this is a random part of those with a known target gene and a result. Over the whole deposit, 503 (2.4%) are marked active. 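Raw plate light values, not normalised; calls rest on replicate z-scores that were not deposited; hits include reporter decreases as well as increases.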 A plus sign joins genes that one reagent is predicted to hit. Reagent sequences are not shown. The record does not give: the amount of reagent, the time to read-out.

- Screen: 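Genome-wide knock-down search for components of Hedgehog signalling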 (primary screen)
- Cell system: Drosophila clone 8 (Cl8) cells
- Reagents: long dsRNA against Drosophila genes
- Detection: 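Firefly light from a Hedgehog-responsive ptc promoter reporter and Renilla reference light, both read on a plate reader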
- Reading the numbers: firefly Hh reporter signal: higher = more ptc reporter light; Renilla reference signal: higher = more Renilla control light
- Hit rule: 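Hit when the z-score averaged over two replicates is under -2 or over +3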
- Meaning of the calls: active = hit: reporter lowered or raised; inactive = not a hit

gene,amplicon,"firefly Hh reporter signal, replicate 1","firefly Hh reporter signal, replicate 2","firefly Hh reporter signal, replicate 3","Renilla reference signal, replicate 1","Renilla reference signal, replicate 2",activity call
CG10979,DRSC12153,83448,1.04e5,,3575,3172,inactive
CR33013,DRSC06286,70939,43271,,1736,3304,inactive
sofe,DRSC19751,1.06e5,1.10e5,,2317,2632,inactive
Sox102F,DRSC17204,1.15e5,1.18e5,,2432,4041,inactive
mRpS11,DRSC15732,1.04e5,94520,,1965,2523,inactive
MED30,DRSC08516,91077,46906,,3760,1570,inactive
ppk23,DRSC20110,71658,2.40e5,,1323,7373,inactive
LManVI,DRSC03224,73960,32790,,1979,3243,inactive
Vm34Ca,DRSC03475,60537,50740,,2284,4877,inactive
CG34370,DRSC03913,1.68e5,2.99e5,,5123,14805,inactive
CG34370,DRSC04142,90321,39003,,2288,3559,inactive
CG34370,DRSC04143,1.12e5,56434,,2630,5158,inactive
CG34370,DRSC04144,1.00e5,38289,,2464,3592,inactive
Cyp4d8,DRSC11131,76274,39619,,3706,1841,inactive
CG30339,DRSC05168,1.15e5,2.56e5,,22900,8496,inactive
CG31493,DRSC12583,1.16e5,98941,,4832,3449,inactive
Ids,DRSC08222,84033,44107,,2579,3601,inactive
CG9331,DRSC03206,1.48e5,1.05e5,,4796,3991,inactive
Or85a,DRSC16764,96421,1.20e5,,4009,3042,inactive
TyrRS,DRSC10430,1.02e5,57632,,3992,2549,inactive
CG5726,DRSC06946,82485,46669,,4551,2156,inactive
CG14852,DRSC14976,1.27e5,99588,,4208,2552,inactive
Mco3,DRSC15926,6.31e5,1.35e5,,32358,3664,inactive
Cipc,DRSC14898,1.15e5,84952,,2864,2596,inactive
Cipc,DRSC14900,4.91e5,99923,,27293,3754,inactive
CG9706,DRSC11095,1.28e5,66787,,4834,2898,inactive
beat-IIa,DRSC14813,90933,1.28e5,,2692,3161,inactive
beat-IIa,DRSC14814,69035,81104,,1826,1904,inactive
CG11438,DRSC11660,96537,1.16e5,,1818,3782,inactive
Npc1a,DRSC03378,67160,45324,,2115,3798,inactive
Ir67a,DRSC09897,45203,34250,54391,3570,4049,inactive
CenB1A,DRSC16923,7.83e5,2.32e5,,32171,7005,inactive
Prx6c,DRSC06080,1.17e5,54541,,3276,5120,inactive
GstD7,DRSC16688,1.63e5,1.88e5,,5608,5629,inactive
CG43133,DRSC19231,5.64e5,2.98e5,,37883,7536,inactive
tst + CG10375,DRSC14237,88768,50594,,3829,1978,inactive
CG8031,DRSC16364,1.13e5,1.02e5,,5412,4008,inactive
CG4627,DRSC06873,80210,63349,,1963,4457,inactive
Ptp61F,DRSC08683,65881,29848,,2476,2576,inactive
ap,DRSC04917,94129,68329,,3259,2241,inactive
p38a,DRSC16743,6.92e5,1.38e5,,35280,4118,inactive
RpS19b,DRSC15773,58160,4.19e5,,2880,25554,active
Ugt37A2,DRSC15861,1.86e5,1.85e5,,6763,3388,inactive
puml,DRSC06793,77729,48237,,1882,3686,inactive
CG42361,DRSC04391,83130,65111,,1432,4579,inactive
Sfmbt,DRSC02552,89689,47707,,3908,2530,inactive
CG32264,DRSC08061,50695,1.08e5,,2032,6441,active
CG32264,DRSC08167,65908,52116,,2040,3813,inactive
CG32264,DRSC08169,72498,85031,,3338,3192,inactive
CG32264,DRSC08285,1.27e5,5.50e5,66886,3604,31364,inactive
CG32264,DRSC08437,37268,22499,,1442,1650,inactive
CG7054,DRSC16185,1.44e5,92186,,6172,4340,inactive
Cdc7,DRSC18428,1.54e5,3.74e5,,6045,14097,inactive
Cdc7,DRSC18429,75911,1.63e5,,2836,7432,inactive
Prosalpha3T,DRSC15226,1.16e5,1.51e5,,4560,5185,inactive
S,DRSC00785,1.19e5,92704,,2749,2043,inactive
CG14720,DRSC14942,94198,1.04e5,,2214,2908,inactive

Reagents above called active (2):
gene,amplicon,"firefly Hh reporter signal, replicate 1","firefly Hh reporter signal, replicate 2","firefly Hh reporter signal, replicate 3","Renilla reference signal, replicate 1","Renilla reference signal, replicate 2",activity call
RpS19b,DRSC15773,58160,4.19e5,,2880,25554,active
CG32264,DRSC08061,50695,1.08e5,,2032,6441,active
